In this assay the test system is Marrow Stromal Cells (MSCs). Kind of assay: Intracellular calcium response of MSCs to oscillatory fluid flow in the presence of calcium channel blockers. The note with it: 20 μM; L-type voltage-operated calcium channel blocker; control 67.1±11.2; not different from control. Background: Calcium flux is commonly read through the fluorescence of an indicator in the cells.

Consider `COC(=O)C1=C(C)NC(C)=C(C(=O)OC)C1c1ccccc1[N+](=O)[O-]` [nifidipine], for which the “percentage of cells that responded to OFF with a change in intracellular calcium” value is 77.7±8.3%.

(Values after patent publication US20070117203A1, “Modulation of stem and progenitor cell growth by oscillatory fluid flow” (priority 2005, published 2007).)
